These are yes or no findings as the source states them, for the method shown. In cells and extracts the contact can be indirect. For some assays here: A result given as binding can be weak or reduced; the word gives no strength.
Tests used:
[1] = target: TRX1 trapping mutant (TRX1-CS) (UniProt P10599); assay: pull-down; kinetic trapping: HEK 293T cells expressing SBP/His-tagged TRX1 variants, oxidative stimulus (H2O2 10 mM or 1 mM, 15 min; or Auranofin 4 uM, 4 h; with or without KU55933 10 uM, 1 h pre-treatment); lysis in Triton X buffer with 50 mM NEM; TRX1 pulled down overnight at 4 °C on streptavidin agarose; Western blot
[2] = target: TRX1 trapping mutant (TRX1-CS) (UniProt P10599); assay: condition: only unstimulated cells (no oxidative stimulus); pull-down; kinetic trapping as a1, but cells left untreated (unstimulated); TRX1 pulled down on streptavidin agarose; Western blot

The chains behind the UniProt entries cited, without tags or fusion partners. Where a name states a change or a piece, a line headed by the entry shows the natural chain unless it says otherwise.
UniProt P10599: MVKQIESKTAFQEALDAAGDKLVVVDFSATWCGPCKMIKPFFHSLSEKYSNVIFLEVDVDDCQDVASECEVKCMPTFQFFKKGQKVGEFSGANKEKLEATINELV

binding [1]: binds
binding [2]: no binding
B1: peroxiredoxin 1 (PRDX1) (enzyme, UniProt Q06830 1-199)
chain: MSSGNAKIGHPAPNFKATAVMPDGQFKDISLSDYKGKYVVFFFYPLDFTFVCPTEIIAFSDRAEEFKKLNCQVIGASVDSHFCHLAWVNTPKKQGGLGPMNIPLVSDPKRTIAQDYGVLKADEGISFRGLFIIDDKGILRQITVNDLPVGRSVDETLRLVQAFQFTDKHGEVCPAGWKPGSDTIKPDVQKSKEYFSKQK
